AC50 data for 51 molecules are collected here from PubChem BioAssay AID1487 (National Center for Advancing Translational Sciences (NCATS), 2009).

The term AC50 denotes the concentration giving half of the maximal activity seen.

The structures appear in SMILES notation. This is one part of the list. The main result of the screen is listed elsewhere. These columns were measured beside it and carry no call. Compounds called inactive in the main read-out are mostly missing here. Potencies come from curve fits of mixed quality, noted in brackets.

The assay in a line: qHTS Assay for Modulators of Lamin A Splicing. As to conditions: HeLa LMNA splicing GFP/RFP minigene ratio, 48 h. In outline:
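Read-out is the ratio of GFP to DsRed2 object intensity, acquired by 488 nm laser-scanning cytometry on HeLa lamin A-EGFP minigene reporter cells. Compound incubation 48 hrs at 37 °C in Opti-MEM with 2% FBS; DMSO 0.5% final.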

[1] abbreviates: measured here: GFP splicing reporter channel.
Where [2] appears, read: measured here: RFP viability control channel.

For `CCc1nnc(NC(=O)[C@@H](NC(=O)c2ccc(C(C)(C)C)cc2)C(C)C)s1`, the AC50 reads like this: under setting [1], 2.82 µM [rising, partial curve]; under setting [2], 14.1 µM [rising, partial curve].

In the case of `COc1cc(/C=C/c2ccc3c(Br)cc(Br)c(O)c3n2)ccc1O`, the AC50 under setting [1] was 3.16 µM [rising, partial curve, poor fit] and the concentration at half-maximal activity (AC50) under setting [2] is 5.62 µM [rising, partial curve, poor fit].

Take `Cn1c(N2CCN(c3ccccn3)CC2)nc2c1c(=O)n(Cc1ccc(Cl)cc1)c(=O)n2C`: the concentration at half-maximal activity (AC50) under setting [2] was 15.8 µM [rising, partial curve].

For `Cc1ccc(CN2C(=O)c3ccccc3NC23CCN(Cc2ccccc2)CC3)cc1`, under setting [2], the half-maximal activity concentration (AC50) is 35.5 µM [rising, single point].

On to `Cc1ccc2cc3c(N)c(C(=O)N4CC(=O)Nc5ccccc54)sc3nc2c1`, for which the AC50 under setting [1] is 1.12 µM [falling, full curve] and the concentration at half-maximal activity (AC50) under setting [2] is 1.12 µM [falling, full curve].

In the case of `C=CCc1cccc(C=Nc2cccn3cc(-c4ccccc4)nc23)c1O`, under setting [1], the AC50 is 0.0794 µM [rising, full curve, poor fit].

Regarding `COc1ccc(OC)c(NC(=O)c2c(NCc3sccc3C)sc3c2CCCCC3)c1`, the AC50 under setting [2] is 35.5 µM [rising, single point].

`O=C1NCCCc2c1oc1ccc(O)cc21`: the AC50 runs as follows: under setting [1], 4.47 µM [falling, single point]; under setting [2], 5.62 µM [falling, partial curve, poor fit].

In the case of `O=C(c1ccccc1)N1CCN2C(=O)c3ccccc3C12c1ccc(Cl)cc1` (stereo not given), the concentration at half-maximal activity (AC50) was 11.2 µM [falling, single point] under setting [1] and 8.91 µM [falling, partial curve] under setting [2].

Consider `CCc1ccccc1NC(=O)/C(=C/c1ccccc1)c1ccccc1`, for which the half-maximal activity concentration (AC50) is 12.6 µM [rising, single point] under setting [1] and 31.6 µM [rising, single point] under setting [2].

Consider `OCCNCC12CC3CC(CC(C3)C1)C2`, for which, under setting [1], the AC50 was 35.5 µM [rising, partial curve, poor fit].

Take `COc1ccc(N2CCN(c3oc(COc4ccc(Cl)cc4Cl)nc3C#N)CC2)cc1`: the half-maximal activity concentration (AC50) under setting [2] was 11.2 µM [rising, single point].

In the case of `COc1cccc(C(=O)Nc2ccc(N3CCN(Cc4ccccc4)CC3)cc2)c1`, the AC50 by setting is: under setting [1], 11.2 µM [rising, single point]; under setting [2], 12.6 µM [rising, single point].

On to `COc1cc(/C=N/Nc2ccc(F)cc2F)cc(OC)c1O`, for which, under setting [1], the concentration at half-maximal activity (AC50) was 20 µM [rising, partial curve, poor fit].

`C=CCn1c(CSc2nc3ccccc3s2)n[nH]c1=S`: the concentration at half-maximal activity (AC50) under setting [2] is 22.4 µM [falling, partial curve, poor fit].

Consider `O=C(NCCc1ccccc1)c1ccc(Cn2c(SCc3cccc(F)c3)nc3cccnc32)cc1`, for which the half-maximal activity concentration (AC50) is 35.5 µM [falling, partial curve, poor fit] under setting [1] and 39.8 µM [falling, partial curve, poor fit] under setting [2].

For `CC(C)C(c1nnnn1Cc1ccco1)N1CCN(c2nc3ccccc3s2)CC1` (stereo not given), the half-maximal activity concentration (AC50) under setting [2] was 11.2 µM [rising, partial curve].

Consider `CCn1c(NCc2ccc(OC)cc2)nc2ccccc21`, for which the AC50 under setting [2] was 2.51 µM [falling, partial curve, poor fit].

Consider `CCOC(=O)C1=C(Nc2ccc(Cl)cc2)OCC1=O`, for which, under setting [1], the half-maximal activity concentration (AC50) was 3.16 µM [rising, partial curve, poor fit].

For `Cc1ccc2cc(C#N)c(NCCNC(=S)NCCCN3CCOCC3)nc2c1`, the AC50 under setting [1] was 10 µM [falling, partial curve, poor fit] and the AC50 under setting [2] is 12.6 µM [falling, partial curve].

Consider `O=C(Cn1c(=O)oc2cc(Cl)ccc21)Nc1cccc(C(F)(F)F)c1`, for which, under setting [1], the concentration at half-maximal activity (AC50) was 0.00794 µM [rising, full curve, poor fit].

Turning to `Cc1ccc(-c2cc(C(F)F)n3ncc(C(=O)Nc4cn(C)nc4C)c3n2)cc1`, the AC50 reads like this: under setting [1], 0.708 µM [falling, full curve]; under setting [2], 2.82 µM [falling, partial curve, poor fit].

`Cc1ccc(-c2nc3cnccn3c2Nc2c(C)cccc2C)o1`: the half-maximal activity concentration (AC50) reads like this: under setting [1], 25.1 µM [falling, single point]; under setting [2], 35.5 µM [falling, single point].

As for `CCCSCCCNC(=O)C1CCCN(c2nn3cc(-c4ccc(OC)cc4)nc3s2)C1` (stereo not given), the AC50 runs as follows: under setting [1], 10 µM [falling, partial curve]; under setting [2], 11.2 µM [falling, partial curve].

For `Cc1c(Cc2ccccc2)sc(NC(=O)/C=C/c2cccc3ccccc23)c1C(N)=O`, under setting [2], the concentration at half-maximal activity (AC50) was 3.98 µM [rising, full curve, poor fit].

With `Cn1nc(N)c2c(-c3ccccc3)c(C#N)c(N)nc21`, the AC50 reads like this: under setting [1], 15.8 µM [rising, single point]; under setting [2], 22.4 µM [rising, single point].

Turning to `COc1ccc(S(=O)(=O)N(C)CC(=O)Nc2cccc(C(C)=O)c2)cc1C`, the half-maximal activity concentration (AC50) is, setting by setting: under setting [1], 10 µM [rising, partial curve, poor fit]; under setting [2], 11.2 µM [rising, single point].

As for `O=C(CCCSc1nc2ccccc2[nH]1)NC1=NCCS1`, the half-maximal activity concentration (AC50) was 22.4 µM [rising, partial curve, poor fit] under setting [1] and 20 µM [rising, partial curve, poor fit] under setting [2].

As for `CCOC(=O)c1c(C)[nH]c(C(=O)COC(=O)COc2ccccc2C=O)c1C`, under setting [1], the AC50 is 3.98 µM [falling, full curve, poor fit].

With `CCn1c2ccccc2c2cc(NC(=O)N3CCOCC3)ccc21`, the AC50 under setting [2] was 35.5 µM [rising, single point].

On to `O=C(Nc1cccnc1)c1ccco1`, for which the AC50 under setting [2] was 12.6 µM [rising, partial curve].

As to `C#CC(=O)N(c1cccc(OC)c1)C(C(=O)NC1CCCC1)c1cccs1` (stereo not given), the half-maximal activity concentration (AC50) is, setting by setting: under setting [1], 35.5 µM [falling, single point]; under setting [2], 35.5 µM [falling, single point].

As to `COC(=O)[C@H](Cc1ccccc1)NC(=O)O[C@@H]1C(=O)c2cc(OC)ccc2O[C@H]1c1ccc(OC)c(Br)c1`, the AC50 was 10 µM [rising, single point] under setting [1] and 10 µM [rising, single point] under setting [2].

Turning to `CCN(CC)CCCNC(=O)CSc1nc(C)cc(C)n1`, the AC50 reads like this: under setting [1], 0.0501 µM [falling, full curve]; under setting [2], 0.0631 µM [falling, full curve, poor fit].

Regarding `c1cc2c(cc1C1CCCCC1)c1c3n2CCCNC3CCC1` (stereo not given), the concentration at half-maximal activity (AC50) is, setting by setting: under setting [1], 25.1 µM [falling, single point]; under setting [2], 25.1 µM [falling, single point].

As for `O=C(Nc1ccc(F)cc1)c1ccccc1Oc1ccc(C(F)(F)F)cc1[N+](=O)[O-]`, under setting [2], the half-maximal activity concentration (AC50) is 1.12 µM [rising, partial curve].

As for `CCOc1ccc(Cl)cc1S(=O)(=O)N1CCN(c2ccc(F)cc2)CC1`, the concentration at half-maximal activity (AC50) is 15.8 µM [rising, single point] under setting [1] and 17.8 µM [rising, single point] under setting [2].

In the case of `Fc1ccc(NC(=S)N2CCN(c3cccc(C(F)(F)F)c3)CC2)cc1`, the AC50 under setting [2] was 35.5 µM [rising, single point].

Turning to `COCCNC(=O)NC(=O)COC(=O)c1cc([N+](=O)[O-])ccc1Sc1nc(C)cs1`, the AC50 under setting [1] was 3.55 µM [falling, single point].

With `CCOc1ccc(NCc2nc3ccccc3n2CCOc2ccccc2)cc1`, the AC50 was 10 µM [rising, partial curve, poor fit] under setting [1] and 14.1 µM [rising, partial curve] under setting [2].

With `Cc1cccc(OCCCCc2c(C)n[nH]c2C)c1`, under setting [2], the half-maximal activity concentration (AC50) is 12.6 µM [rising, partial curve].

As to `O=C(Nc1ccccc1OC(=O)c1ccc(Cl)cc1)c1ccc(Cl)cc1`, the AC50 under setting [2] is 22.4 µM [rising, partial curve, poor fit].

As for `COc1cccc(C(=O)NCC2CCN(c3ccc(S(=O)(=O)N4CCOCC4)cc3)CC2)c1`, the AC50 under setting [2] is 12.6 µM [rising, partial curve].

Regarding `O=C(NCc1cc(C(F)(F)F)cc(C(F)(F)F)c1)C1CC(c2ccccc2[N+](=O)[O-])=NO1` (stereo not given), the AC50 under setting [1] was 31.6 µM [rising, single point] and the AC50 under setting [2] is 35.5 µM [rising, single point].

Take `CC(OC(=O)c1cc2sccc2n1C)C(=O)NCc1ccc2c(c1)OCO2` (stereo not given): the half-maximal activity concentration (AC50) is 0.1 µM [rising, full curve, poor fit] under setting [1] and 0.708 µM [rising, full curve, poor fit] under setting [2].

Consider `CCCn1c2ccccc2c2cnn(CC(=O)N(C)c3ccccc3CC)c(=O)c21`, for which the AC50 is, setting by setting: under setting [1], 0.0631 µM [falling, full curve]; under setting [2], 0.1 µM [falling, full curve].

Take `O=C(NCCC1=CCCCC1)c1ccc2c(c1)N(Cc1ccccc1)C(=O)CS2`: the AC50 runs as follows: under setting [1], 20 µM [rising, single point]; under setting [2], 31.6 µM [rising, single point].

As for `COc1ccc(CC(=O)n2nc(-c3ccc(Cl)cc3)nc2NCc2ccco2)cc1`, the concentration at half-maximal activity (AC50) by setting is: under setting [1], 14.1 µM [falling, single point]; under setting [2], 31.6 µM [falling, single point].

`COc1ccc(CCN(Cc2nc3ccccc3c(=O)[nH]2)C(=O)C2CC2)cc1`: the AC50 reads like this: under setting [1], 0.00316 µM [falling, full curve, poor fit]; under setting [2], 0.00355 µM [falling, full curve, poor fit].

As for `O=C(NCc1ccccn1)C1CC(c2ccc(Cl)c(Cl)c2)=NO1` (stereo not given), the half-maximal activity concentration (AC50) is, setting by setting: under setting [1], 35.5 µM [falling, single point]; under setting [2], 35.5 µM [falling, single point].

Turning to `CCSc1nc2ccccc2n1Cc1ccccc1F`, the AC50 was 12.6 µM [rising, single point] under setting [1] and 25.1 µM [rising, single point] under setting [2].
